These are yes or no findings as the source states them, for the method shown. Some binding calls cover weakened binding; strength is not graded here.
Target: T1, STAM1 UIM peptide (UniProt Q92783)
T1 sequence (peptide): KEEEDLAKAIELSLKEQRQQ
Experiment: peptide or protein array; peptide SPOT array (Intavis) on membrane, blocked overnight at 4°C in TBS (137 mM NaCl, 2.7 mM KCl, 50 mM Tris, pH 7.0) with 5% nonfat dry milk; incubated with 2 mg/ml 6His-TEV-Ubiquitin for 3 h at room temperature; detected with anti-6His antibody and AP-coupled secondary antibody; both purified

Protein sequences, listed by entry. Tags and fused reporters are not part of them. Residues count along the entry.
UniProt P0CG63, residues 1-76: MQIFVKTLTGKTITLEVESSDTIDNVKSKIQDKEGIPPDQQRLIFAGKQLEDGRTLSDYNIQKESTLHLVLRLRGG

binding: binds
Substance: recombinant yeast ubiquitin (6His-TEV-Ubiquitin) (from UniProt P0CG63 1-76)

— publication PMC8273247
